The inconclusive results got no clear call from the source; some entries with a clear call stand among them for comparison. A potency beside an inconclusive call is a rough fit, not a confirmed value. Active and inactive are the calls of the source. Rule for the calls: active = hit-call score of the fitted dose curve at least 0.9, where 1 is the maximum; inconclusive = response in the unintended direction; inactive = score below 0.9.
Molecular target: human Sirtuin 3 (SIRT3), SIRT3 (gene 23410) (UniProt Q9NTG7)
Experiment: NVS_ENZ_hSIRT3: NovaScreen (NVS) Enzymatic Assay for human Sirtuin 3 (SIRT3) (AID 2283222)
Description: NVS_ENZ_hSIRT3 is a biochemical, single-readout assay that uses extracted gene-proteins in a cell-free assay. Measurements were taken 1 hour after chemical dosing in a 384-well plate.NVS_ENZ_hSIRT3 is one of one assay component(s) measured or calculated from the NVS_ENZ_hSIRT3 assay. It is designed to make measurements of enzyme activity, a form of enzyme reporter, as detected with fluorescence intensity signals by Fluorescence and electrophoretic mobility shift technology.Data from the assay component NVS_ENZ_hSIRT3 was analyzed into 1 assay endpoint. This assay endpoint, NVS_ENZ_hSIRT3, was analyzed in the positive analysis fitting direction relative to DMSO as the negative control and baseline of activity. Using a type of enzyme reporter, loss-of-signal activity can be used to understand changes in the enzymatic activity as they relate to the gene SIRT3. Furthermore, this assay endpoint can be referred to as a primary readout, because this assay has produced multiple assay endpoints where this one serves a enzymatic activity function. To generalize the intended target to other relatable targets, this assay endpoint is annotated to the hydrolase intended target family, where the subfamily is protein deacetylase.
Binding assays used specific radioligands (tritiated, iodinated) with non-radioactive competitive displacement ligands in agonist or antagonist protocols (as indicated) and various reference compounds and inhibitors to titrate specific binding to receptors and transporters. Most enzyme assays (CYPs, kinases, phosphatases, proteases, HDACs) used recombinant protein and specific substrates (fluorescence mostly, some colorimetric and radioactive) and inhibitors, followed by a biochemical separation of substrate and product. All assays for the biochemical HTS were initially run in duplicate at a single concentration (10 uM for CYP450 assays and 25 uM for all others). Assay-chemical combinations meeting a pre-defined threshold (e.g., 30% inhibition and other criteria defined below) were then run in singleton concentration-response format with maximum concentration of 20 uM for CYPs and 50 uM for all others. Each assay was run with positive and negative controls, and concurrent controls on every plate. The follow-up (secondary) screen tested active chemical-pairs in concentration series, as well as a few additional assays not tested in the primary screen, some selected negative inactives, and several cases re-run in the concentration series for confirmatory purposes.

Chains of the proteins cited; added tags and fusions are not shown. Lines headed by an entry give the natural chain unless they say otherwise; changes in a name come on top.
UniProt Q9NTG7: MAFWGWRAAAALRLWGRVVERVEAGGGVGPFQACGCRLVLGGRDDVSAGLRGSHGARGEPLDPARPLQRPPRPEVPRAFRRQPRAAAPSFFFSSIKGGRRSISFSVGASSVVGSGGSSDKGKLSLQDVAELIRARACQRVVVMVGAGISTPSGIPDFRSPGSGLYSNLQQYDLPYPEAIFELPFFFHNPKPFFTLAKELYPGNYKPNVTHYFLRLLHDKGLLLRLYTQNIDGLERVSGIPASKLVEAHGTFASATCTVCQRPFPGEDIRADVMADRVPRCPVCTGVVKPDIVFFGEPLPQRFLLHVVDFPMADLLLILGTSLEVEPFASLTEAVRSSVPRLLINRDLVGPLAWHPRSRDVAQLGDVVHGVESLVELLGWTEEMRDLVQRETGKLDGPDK

Q: With `Nc1cccc2c(N)cccc12` as the compound, how does the outcome read?
A: inactive

Q: `CC(=O)C(C)=CC1C(C)=CCCC1(C)C` (configuration not stated) was tested. Which AC50 did it give?
A: inconclusive: 3430 nM

Q: Which AC50 does the source give for `CS(=O)(=O)c1ccc([C@@H](CC2CCCC2)C(=O)Nc2cnccn2)cc1Cl` here?
A: inconclusive: 25000 nM

Q: For `Cc1cccc(Nc2cc(Cl)nc(SCC(=O)O)n2)c1C`, which outcome is on record?
A: inactive

Q: For `CC(C)c1nnc2ccc(-c3ocnc3-c3cc(F)ccc3F)cn12`, which outcome is on record?
A: inactive

Q: Which AC50 does the source give for `Cc1cc(F)ccc1-c1cc(N2CC[C@@H](O)[C@H]2CO)ncc1N(C)C(=O)C(C)(C)c1cc(C(F)(F)F)cc(C(F)(F)F)c1` here?
A: inconclusive: 193 nM

Q: `O=C1c2ccccc2C(=O)N1CCc1noc(-c2ccc(CN3CCCCCC3)s2)n1` was tested. Which outcome did it give?
A: inactive

Q: How did the AC50 turn out when `c1cc(-c2ccncc2)ccn1` was run?
A: inconclusive: 48.2 nM

Q: With `Cc1occc1C(=O)Nc1ccc(C(=O)N2CCC(F)(F)/C(=C\C(=O)N3CCC(N4CCCCC4)CC3)c3ccccc32)cc1` as the compound, how does the outcome read?
A: inactive

Q: How did the outcome turn out when `CC(C)c1ccc(C(=O)N=C(N)N)cc1S(C)(=O)=O` was run?
A: inactive

Q: How did the AC50 turn out when `COc1cc(C(=O)NC2CCN(C)CC2)ccc1Nc1ncc2c(n1)N(C1CCCC1)CC(F)(F)C(=O)N2C` was run?
A: inconclusive: 23200 nM

Q: Which AC50 does the source give for `CCCCC(CC)COC(=O)CCCCC(=O)OCC(CC)CCCC` (configuration not stated) here?
A: inconclusive: 124 nM

Source: PubChem BioAssay (EPA / NIEHS)
